Measurements reported in PubChem BioAssay AID1259286 (Sanger Institute, 2017).
Screen: 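Kinase knock-downs that reduce colorectal cancer cell viability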 (primary screen). Cell system: NCI-H630 human colorectal cancer cells. Reagents: siRNA pool against human genes. Conditions: anchor drugs BYL719 at 1 µM, cetuximab at 5 µg/ml or trametinib at 10 nM, or DMSO vehicle alone; exposure time not given. Read-out: 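Replicate-averaged viability as a fraction of non-targeting control, knock-down-alone robust z-score, and per-drug synergy scores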. Scale: viability z-score, knock-down alone: higher = more viable cells, weaker knock-down effect; viability vs control, knock-down alone: higher = more viable cells. Units: viability vs control, knock-down alone in fraction of control. Hit rule: 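Essential call: robust z-score of viability with siRNA alone lower than -3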. Calls: active = essential when knocked down alone; inactive = not essential alone.
In all, the deposit lists 794 reagents; shown is a random part of them. 17 of them (2.1%) count as active. 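Calls use knock-down alone only; synergy above 0.15 marked separately; viability seems capped at control level; exposure time not given.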 Not all columns of the deposit are shown. Not given: the amount of reagent, the time to read-out.

CAMK1 (GeneID 8536) | viability z-score, knock-down alone = 0.464; viability vs control, knock-down alone = 1; Outcome = inactive
FES (GeneID 2242) | viability z-score, knock-down alone = -0.405; viability vs control, knock-down alone = 0.967; Outcome = inactive
SYK (GeneID 6850) | viability z-score, knock-down alone = 0.464; viability vs control, knock-down alone = 1; Outcome = inactive
RAD21 (GeneID 5885) | viability z-score, knock-down alone = -1.37; viability vs control, knock-down alone = 0.931; Outcome = inactive
NME5 (GeneID 8382) | viability z-score, knock-down alone = 0.464; viability vs control, knock-down alone = 1; Outcome = inactive
PGK1 (GeneID 5230) | viability z-score, knock-down alone = -0.157; viability vs control, knock-down alone = 0.977; Outcome = inactive
MST1R (GeneID 4486) | viability z-score, knock-down alone = 0.464; viability vs control, knock-down alone = 1; Outcome = inactive
CKS1B (GeneID 1163) | viability z-score, knock-down alone = 0.464; viability vs control, knock-down alone = 1; Outcome = inactive
PDGFRA (GeneID 5156) | viability z-score, knock-down alone = 0.464; viability vs control, knock-down alone = 1; Outcome = inactive
SOS2 (GeneID 6655) | viability z-score, knock-down alone = 0.464; viability vs control, knock-down alone = 1; Outcome = inactive
NADK (GeneID 65220) | viability z-score, knock-down alone = 0.464; viability vs control, knock-down alone = 1; Outcome = inactive
MAP3K15 (GeneID 389840) | viability z-score, knock-down alone = 0.464; viability vs control, knock-down alone = 1; Outcome = inactive

Entries listed so far whose gene name starts with S or s:
SYK (GeneID 6850) | viability z-score, knock-down alone = 0.464; viability vs control, knock-down alone = 1; Outcome = inactive
SOS2 (GeneID 6655) | viability z-score, knock-down alone = 0.464; viability vs control, knock-down alone = 1; Outcome = inactive
